# Test results published in PubChem BioAssay AID1347075 (National Center for Advancing Translational Sciences (NCATS), 2019).
# The campaign covered roughly 400,000 compounds. About 5,500 (1.4%) were called active. Inconclusive results, whose numbers are uncertain, are shown with a selection of clear calls. Calls follow the shape of the dose curve; as a rule, active = well fitted cell-killing curve with a large enough effect; inconclusive = small, poorly fitted or top-dose-only effect, or effect the other way; inactive = flat fitted curve, though single readings scatter. A potency beside an inconclusive call is a rough fit, not a confirmed value.
# Assay: qHTS assay for MDR1-selective chemotherapeutics: Primary screen using the parental adenocarcinoma cell KB-3-1; also: nearly all actives have a fitted effect of over 60% in size
# Conditions: KB-3-1 viability, CellTiter-Glo ATP luminescence, 72 h; activity change, negative = cytotoxic: at 46.1 µM (top of the series)
# Method in brief: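 Here the drug-naive KB-3-1 line serves as comparator for MDR sub-line selectivity; cells received compound titrations, 72 h at 37 °C, then CellTiter-Glo readout.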
# % is scaled to controls: 0 for no effect and ±100 for the full control effect; potency is read from the fitted curve at half-maximal effect.
SMILES,Potency,"activity change, negative = cytotoxic"
COc1cc(/C=C/c2cc[n+](C)cc2)ccc1OCC(=O)Nc1ccc(Cl)c(Cl)c1,"inconclusive: 29.1 µM [cytotoxic, single point]",
Cc1cc2[nH]c(=S)[nH]c2cc1C,"inconclusive: 25.9 µM [cytotoxic, partial curve, poor fit]",
Cc1ccc(C)c(N2CCN(CCCNC(=O)c3ccc4nc(N5CCC(C)CC5)sc4c3)CC2)c1,active: 20.6 µM,
NS(=O)(=O)c1ccc(CCNC(=O)c2ccc(C#CC3(O)CCCCC3)cc2)cc1,"inconclusive: 29.1 µM [cytotoxic, single point]",
Oc1cccc(C(O)CNCc2ccc(-c3ccccc3)cc2)c1 (configuration not stated),"inconclusive: 16.4 µM [cytotoxic, single point]",
CCOC(=O)C1=C(N)Oc2cc(O)ccc2C1c1ccc(C)cc1 (configuration not stated),,inactive: -6.61%
Nc1cc(=O)[nH]c(SCC(=O)Nc2cccc([N+](=O)[O-])c2)n1,"inconclusive: 29.1 µM [rising, single point]",
COc1ccc(CCN(C(=O)Cn2nnc3ccccc32)C(C(=O)NCC2CCCO2)c2ccncc2)cc1OC (configuration not stated),,inactive: 9.13%
CN1CCN(c2ccc([N+](=O)[O-])cc2C(=O)c2ccc(Br)cc2)CC1,active: 2.91 µM,
CC1CC(C)(C)Nc2ccc(OC(=O)c3ccco3)cc21 (configuration not stated),"inconclusive: 29.1 µM [cytotoxic, single point]",
CN(C)/C=N/C1=C(C#N)C(c2ccc(Br)cc2)c2ccc3ccccc3c2O1 (configuration not stated),"inconclusive: 29.1 µM [cytotoxic, single point]",
O=[N+]([O-])c1ccc(N=Nc2ncc[nH]2)cc1,"inconclusive: 32.6 µM [cytotoxic, partial curve, poor fit]",
NS(=O)(=O)c1ccc(CCNCC(=O)N2CCC(Cc3ccccc3)CC2)cc1,"inconclusive: 18.4 µM [cytotoxic, single point]",
Cc1cc(C)c2cc(C#N)c(N3CCCN(C(=S)NCCCN(C)C)CC3)nc2c1,"inconclusive: 29.1 µM [cytotoxic, single point]",
CCOc1cc(C=O)ccc1OCCCN1C(=O)NC(C)(C)C1=O,,inactive: 4.79%
O=C(c1ccco1)N1CCN(C(c2ccc(Cl)cc2)c2nnnn2Cc2ccccc2)CC1 (configuration not stated),"inconclusive: 16.4 µM [cytotoxic, single point]",
CCc1cccc(NC(=O)C(Cc2ccccc2)NS(=O)(=O)c2cccs2)c1 (configuration not stated),,inactive: -17.2%
CCn1c(=NC(=O)c2ccco2)sc2cccc(F)c21,"inconclusive: 20.6 µM [cytotoxic, partial curve, poor fit]",
COc1ccc(Cc2nc(-c3ccc(-n4cccc4)cc3)no2)cc1OC,"inconclusive: 16.4 µM [cytotoxic, single point]",
COc1ccc(C)cc1NC(=O)/C=C/c1ccc(OC)c(S(=O)(=O)N2CCOCC2)c1,,inactive: -1.47%
NC(=O)CC(NC(=O)Cc1ccc(Br)cc1)c1ccc(NC2CC3CCC2C3)c([N+](=O)[O-])c1 (configuration not stated),"inconclusive: 6.51 µM [cytotoxic, partial curve]",
CCN(Cc1ccccc1)C(=O)c1cc2cc(OC)c(OC)cc2[nH]1,,inactive: 5.42%
COc1ccc(-c2cc(-c3ccccc3)nc(NN)n2)cc1OC,,inactive: -3.37%
COc1ccc(NC(=S)N2CCC(Cc3ccccc3)CC2)cc1,,inactive: -4.09%

# Structures listed so far that have sulfur (ten):
SMILES,Potency,"activity change, negative = cytotoxic"
Cc1cc2[nH]c(=S)[nH]c2cc1C,"inconclusive: 25.9 µM [cytotoxic, partial curve, poor fit]",
Cc1ccc(C)c(N2CCN(CCCNC(=O)c3ccc4nc(N5CCC(C)CC5)sc4c3)CC2)c1,active: 20.6 µM,
NS(=O)(=O)c1ccc(CCNC(=O)c2ccc(C#CC3(O)CCCCC3)cc2)cc1,"inconclusive: 29.1 µM [cytotoxic, single point]",
Nc1cc(=O)[nH]c(SCC(=O)Nc2cccc([N+](=O)[O-])c2)n1,"inconclusive: 29.1 µM [rising, single point]",
NS(=O)(=O)c1ccc(CCNCC(=O)N2CCC(Cc3ccccc3)CC2)cc1,"inconclusive: 18.4 µM [cytotoxic, single point]",
Cc1cc(C)c2cc(C#N)c(N3CCCN(C(=S)NCCCN(C)C)CC3)nc2c1,"inconclusive: 29.1 µM [cytotoxic, single point]",
CCc1cccc(NC(=O)C(Cc2ccccc2)NS(=O)(=O)c2cccs2)c1 (configuration not stated),,inactive: -17.2%
CCn1c(=NC(=O)c2ccco2)sc2cccc(F)c21,"inconclusive: 20.6 µM [cytotoxic, partial curve, poor fit]",
COc1ccc(C)cc1NC(=O)/C=C/c1ccc(OC)c(S(=O)(=O)N2CCOCC2)c1,,inactive: -1.47%
COc1ccc(NC(=S)N2CCC(Cc3ccccc3)CC2)cc1,,inactive: -4.09%

# In the list so far, 2 contain a Cl atom.
SMILES,Potency,"activity change, negative = cytotoxic"
COc1cc(/C=C/c2cc[n+](C)cc2)ccc1OCC(=O)Nc1ccc(Cl)c(Cl)c1,"inconclusive: 29.1 µM [cytotoxic, single point]",
O=C(c1ccco1)N1CCN(C(c2ccc(Cl)cc2)c2nnnn2Cc2ccccc2)CC1 (configuration not stated),"inconclusive: 16.4 µM [cytotoxic, single point]",

# Remaining list, next part.

SMILES,Potency,"activity change, negative = cytotoxic"
COc1ccc2[nH]c(-c3cccc(F)c3)cc(=O)c2c1,active: 0.411 µM,
CC(Nc1nc(-c2ccc(F)cc2)cs1)c1nc2cc(C(F)(F)F)ccc2n1CCOCCO (configuration not stated),"inconclusive: 29.1 µM [rising, single point]",
O=C(CC1NC(=S)NC1=O)c1ccc(Cl)cc1 (configuration not stated),"inconclusive: 20.6 µM [cytotoxic, single point]",
CCOC(=O)c1c(C)nc2ccc(C)cn12,"inconclusive: 0.0046 µM [rising, full curve]",
CCCCn1c(N)c(N(C)C(=O)c2c(C)nn(-c3ccccc3)c2C)c(=O)[nH]c1=O,"inconclusive: 20.6 µM [cytotoxic, single point]",
CCCCNC(=O)C1(C)CCCCN1Cc1ccc2ccccc2c1 (configuration not stated),"inconclusive: 16.4 µM [cytotoxic, single point]",
O=C(Cc1ccccc1)NC(NCCc1ccccc1)C(Cl)(Cl)Cl (configuration not stated),,inactive: 10.5%
COc1cc(C2CC(=O)c3c([nH]c(C(=O)OC4CCCC4)c3C)C2)cc(OC)c1OC (configuration not stated),"inconclusive: 20.6 µM [cytotoxic, single point]",
C[C@@H](C(=O)NCCc1ccc(F)cc1)N1C(=O)N2CCc3c([nH]c4ccccc34)[C@@]2(C)C1=O,"inconclusive: 29.1 µM [cytotoxic, single point]",
Cc1ccccc1NC(=O)NC1(C(=O)N2CCN(C)CC2)CCCCC1,,inconclusive: 12.4%
Cc1ccc(NC(=O)C2CCN(S(=O)(=O)c3ccc4c(c3)NC(=O)C(C)S4)CC2)cc1Cl (configuration not stated),"inconclusive: 2.06 µM [cytotoxic, partial curve, poor fit]",
COc1cc(C(F)(F)F)c(C(=O)N(C)Cc2cccc(Cl)c2)cn1,,inactive: -4.03%
CCOC(=O)N1CCN(C(=O)CSCc2nc(-c3ccccc3F)oc2C)CC1,"inconclusive: 22.4 µM [cytotoxic, single point]",
COc1ccc(S(=O)(=O)N2CCN(CCc3ccccc3)CC2)c(OC)c1,"inconclusive: 7.31 µM [cytotoxic, partial curve]",
CN(C(=O)c1ccoc1)c1ccc2ccccc2c1,"inconclusive: 18.4 µM [cytotoxic, single point]",
Cc1cc(NC(=O)NC(=O)c2ccccc2NC(=O)CN)ccc1Oc1ncc(Br)cn1,active: 1.16 µM,
CC(=O)c1ccc(N2CCC(c3cc(-c4ccc(Cl)cc4Cl)n[nH]3)CC2)c([N+](=O)[O-])c1,"inconclusive: 25.9 µM [cytotoxic, single point]",
CCCCCCNC(=O)c1cc(-c2ccco2)nc2ccccc12,"inconclusive: 29.1 µM [cytotoxic, single point]",
Cc1csc2nc(NC(=O)c3ccccc3)sc(=O)c12,,inactive: 21.9%
OCC1(CCCc2ccccc2)CCN(Cc2ccc(F)cc2)CC1,,inactive: 3.13%
Cc1ccc2c(c1)c1c(n2CC(O)Cn2c(C)nc3ccccc32)C(=O)CCC1 (configuration not stated),"inconclusive: 16.4 µM [cytotoxic, partial curve]",
COc1ccc(C(O)c2ncc(-c3cccc4ccccc34)[nH]2)cc1F (configuration not stated),"inconclusive: 29.1 µM [cytotoxic, single point]",
O=C(O)CSc1nc(-c2ccccc2)nc2c1oc1ccccc12,,inactive: -2.47%
O=C(Nc1ccc(OC(F)F)c(Cl)c1)c1ccccn1,,inconclusive: -34.5% [cytotoxic]

SMILES,Potency,"activity change, negative = cytotoxic"
COc1ccccc1NS(=O)(=O)c1cccc(C(=O)NNC(=O)c2ccc(O)c(Cl)c2)c1,"inconclusive: 1.16 µM [cytotoxic, full curve]",
Nc1c(Cl)ncnc1N/N=C/c1ccccn1,active: 8.2 µM,
COc1ccc(C(=O)N(C)Cc2cnn(Cc3ccccc3)c2)cc1S(=O)(=O)N1CCOCC1,active: 5.8 µM,
Cc1ccc2nc(Nc3nc(-c4ccccc4)cc(=O)[nH]3)nc(C)c2c1,,inactive: -19.5%
CN(C)S(=O)(=O)c1cccc(NC(=O)c2ccc(COc3ccccc3)cc2)c1,"inconclusive: 18.4 µM [cytotoxic, single point]",
COc1cccc(CC(=O)Nc2c(C(=O)N3CCN(c4ccccc4F)CC3)oc3ccccc23)c1,active: 16.4 µM,
COC(=O)c1ccc(S(=O)(=O)N2CCc3ccccc32)cc1,"inconclusive: 29.1 µM [cytotoxic, single point]",
CCCC1=Nc2cc(C(=O)NC3CCCCC3)ccc2Sc2ccc(C)cc21,active: 0.517 µM,
Cc1cc(C)c2c(=O)c3c(oc2c1)C(=O)N(CCCOC(C)C)C3c1ccccc1F (configuration not stated),,inactive: -7.11%
C=CC(=O)Nc1cccc(Oc2cc(Cl)nc3[nH]ccc23)c1,"inconclusive: 29.1 µM [cytotoxic, single point]",
COC(=O)COc1ccc(NS(=O)(=O)c2cccc([N+](=O)[O-])c2)cc1,,inactive: 8.5%
Cc1ccc(C)c(NC(=O)CN2C(=O)NC(CCc3ccccc3)C2=O)c1 (configuration not stated),"inconclusive: 23.1 µM [rising, partial curve, poor fit]",
CCn1c(SCC(=O)Nc2cc(C(C)(C)C)nn2-c2ccccc2)nnc1-c1cccs1,,inactive: -0.974%
Cc1c(C(=O)NCc2cccc(C(F)(F)F)c2)sc(=O)n1Cc1ccccc1F,,inactive: 0.473%
Cc1cccc(N2CCN(C(=O)c3cnn(-c4ccccc4)c3C3CCN(C(=O)OC(C)(C)C)CC3)CC2)c1C,"inconclusive: 18.4 µM [cytotoxic, single point]",
Cc1cc(NC(=O)CSc2nc3cc(Cl)ccc3o2)no1,"inconclusive: 23.1 µM [cytotoxic, partial curve, poor fit]",
O=C(CNC(=O)c1cccc(-n2cccc2)c1)Nc1ccccc1Br,,inactive: 21.5%
COc1ccc(OC)c(CN2CCN(c3ccc(S(=O)(=O)N4CCCC4)cn3)CC2)c1,,inactive: -4.55%
Cc1cc(C)cc(N=c2c([N+](=O)[O-])nn(-c3cccc(Cl)c3)n2O)c1,,inactive: -9.99%
CCc1nc2nc(C)cc(Nc3cc(C)ccc3C)n2n1,,inactive: 4.58%
CC(C)NC(=S)NC(c1ccccc1)(c1ccccc1)c1ccccc1,"inconclusive: 29.1 µM [cytotoxic, single point]",
O=C(Nc1ccc(Cl)cc1C(=O)NCC1CCCO1)c1ccco1 (configuration not stated),"inconclusive: 32.6 µM [rising, single point]",
O=C(CSc1nnc(CNC(=O)c2c(F)cccc2F)o1)NCc1ccc2c(c1)OCO2,,inactive: 5.16%
CC1CCN(CCNC(=O)c2ccc3c(=O)n(Cc4ccc(Cl)cc4)c(=S)[nH]c3c2)CC1,,inactive: -21.7%
